Data published in the supplement of paper PMC6411743.
± gives the standard deviation of the averaged measurements. This is a selection; strong and weak results do not stand in their true shares. Most values lie at the level of the controls, where differences are scatter.

Protein sequences, listed by entry. Tags and fused reporters are not part of them. Lines headed by an entry give the natural chain unless they say otherwise; changes in a name come on top.
UniProt Q86U38: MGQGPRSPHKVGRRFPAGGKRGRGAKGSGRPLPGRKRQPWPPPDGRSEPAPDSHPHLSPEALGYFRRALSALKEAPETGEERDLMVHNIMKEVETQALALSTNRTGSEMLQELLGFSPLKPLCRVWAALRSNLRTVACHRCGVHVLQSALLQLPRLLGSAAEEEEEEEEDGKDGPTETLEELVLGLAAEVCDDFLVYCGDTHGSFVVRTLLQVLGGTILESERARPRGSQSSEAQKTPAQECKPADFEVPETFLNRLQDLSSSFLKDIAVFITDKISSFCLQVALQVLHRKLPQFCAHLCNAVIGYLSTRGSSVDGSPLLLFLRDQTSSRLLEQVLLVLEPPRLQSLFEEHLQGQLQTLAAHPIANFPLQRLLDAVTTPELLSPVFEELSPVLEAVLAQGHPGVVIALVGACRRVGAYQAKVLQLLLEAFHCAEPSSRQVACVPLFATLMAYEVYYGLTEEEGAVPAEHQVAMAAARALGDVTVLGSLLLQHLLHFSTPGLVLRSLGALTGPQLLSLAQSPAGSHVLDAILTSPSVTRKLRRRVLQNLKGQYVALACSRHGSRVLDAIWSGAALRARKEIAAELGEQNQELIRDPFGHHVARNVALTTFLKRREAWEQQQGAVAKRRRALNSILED
UniProt Q86TN4: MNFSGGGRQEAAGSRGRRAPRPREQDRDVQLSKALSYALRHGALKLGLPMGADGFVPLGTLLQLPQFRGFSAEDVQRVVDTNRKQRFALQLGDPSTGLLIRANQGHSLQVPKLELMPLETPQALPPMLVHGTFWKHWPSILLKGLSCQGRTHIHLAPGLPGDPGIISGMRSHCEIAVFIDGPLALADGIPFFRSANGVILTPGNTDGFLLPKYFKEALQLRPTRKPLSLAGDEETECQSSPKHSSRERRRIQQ
UniProt Q8N4S0: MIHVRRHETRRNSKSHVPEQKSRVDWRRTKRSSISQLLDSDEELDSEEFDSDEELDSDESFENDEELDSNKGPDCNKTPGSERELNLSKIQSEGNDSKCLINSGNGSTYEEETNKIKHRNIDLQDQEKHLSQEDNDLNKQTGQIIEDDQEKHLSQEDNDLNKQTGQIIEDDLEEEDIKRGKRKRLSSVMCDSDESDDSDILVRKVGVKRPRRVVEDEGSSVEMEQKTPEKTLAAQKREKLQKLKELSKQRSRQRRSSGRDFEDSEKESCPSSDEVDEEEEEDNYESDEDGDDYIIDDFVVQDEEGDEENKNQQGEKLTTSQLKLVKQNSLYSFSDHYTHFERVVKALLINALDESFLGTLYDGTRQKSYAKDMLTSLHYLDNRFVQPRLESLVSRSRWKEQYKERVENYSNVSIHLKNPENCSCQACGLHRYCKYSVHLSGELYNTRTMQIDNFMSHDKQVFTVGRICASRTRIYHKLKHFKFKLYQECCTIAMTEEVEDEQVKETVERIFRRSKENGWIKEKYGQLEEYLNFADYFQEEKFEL
UniProt Q8IYS1: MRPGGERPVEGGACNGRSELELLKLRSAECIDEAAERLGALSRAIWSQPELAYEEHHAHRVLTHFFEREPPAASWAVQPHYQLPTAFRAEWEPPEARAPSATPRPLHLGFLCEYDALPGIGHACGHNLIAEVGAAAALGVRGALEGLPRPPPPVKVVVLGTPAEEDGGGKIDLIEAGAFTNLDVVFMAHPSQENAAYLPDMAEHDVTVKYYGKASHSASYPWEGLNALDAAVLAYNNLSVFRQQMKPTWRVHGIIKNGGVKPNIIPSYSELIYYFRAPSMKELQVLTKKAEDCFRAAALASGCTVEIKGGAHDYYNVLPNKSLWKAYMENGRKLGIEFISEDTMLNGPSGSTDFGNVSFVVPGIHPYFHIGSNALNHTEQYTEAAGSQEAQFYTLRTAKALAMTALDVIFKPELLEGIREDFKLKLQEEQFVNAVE
UniProt Q8IY21: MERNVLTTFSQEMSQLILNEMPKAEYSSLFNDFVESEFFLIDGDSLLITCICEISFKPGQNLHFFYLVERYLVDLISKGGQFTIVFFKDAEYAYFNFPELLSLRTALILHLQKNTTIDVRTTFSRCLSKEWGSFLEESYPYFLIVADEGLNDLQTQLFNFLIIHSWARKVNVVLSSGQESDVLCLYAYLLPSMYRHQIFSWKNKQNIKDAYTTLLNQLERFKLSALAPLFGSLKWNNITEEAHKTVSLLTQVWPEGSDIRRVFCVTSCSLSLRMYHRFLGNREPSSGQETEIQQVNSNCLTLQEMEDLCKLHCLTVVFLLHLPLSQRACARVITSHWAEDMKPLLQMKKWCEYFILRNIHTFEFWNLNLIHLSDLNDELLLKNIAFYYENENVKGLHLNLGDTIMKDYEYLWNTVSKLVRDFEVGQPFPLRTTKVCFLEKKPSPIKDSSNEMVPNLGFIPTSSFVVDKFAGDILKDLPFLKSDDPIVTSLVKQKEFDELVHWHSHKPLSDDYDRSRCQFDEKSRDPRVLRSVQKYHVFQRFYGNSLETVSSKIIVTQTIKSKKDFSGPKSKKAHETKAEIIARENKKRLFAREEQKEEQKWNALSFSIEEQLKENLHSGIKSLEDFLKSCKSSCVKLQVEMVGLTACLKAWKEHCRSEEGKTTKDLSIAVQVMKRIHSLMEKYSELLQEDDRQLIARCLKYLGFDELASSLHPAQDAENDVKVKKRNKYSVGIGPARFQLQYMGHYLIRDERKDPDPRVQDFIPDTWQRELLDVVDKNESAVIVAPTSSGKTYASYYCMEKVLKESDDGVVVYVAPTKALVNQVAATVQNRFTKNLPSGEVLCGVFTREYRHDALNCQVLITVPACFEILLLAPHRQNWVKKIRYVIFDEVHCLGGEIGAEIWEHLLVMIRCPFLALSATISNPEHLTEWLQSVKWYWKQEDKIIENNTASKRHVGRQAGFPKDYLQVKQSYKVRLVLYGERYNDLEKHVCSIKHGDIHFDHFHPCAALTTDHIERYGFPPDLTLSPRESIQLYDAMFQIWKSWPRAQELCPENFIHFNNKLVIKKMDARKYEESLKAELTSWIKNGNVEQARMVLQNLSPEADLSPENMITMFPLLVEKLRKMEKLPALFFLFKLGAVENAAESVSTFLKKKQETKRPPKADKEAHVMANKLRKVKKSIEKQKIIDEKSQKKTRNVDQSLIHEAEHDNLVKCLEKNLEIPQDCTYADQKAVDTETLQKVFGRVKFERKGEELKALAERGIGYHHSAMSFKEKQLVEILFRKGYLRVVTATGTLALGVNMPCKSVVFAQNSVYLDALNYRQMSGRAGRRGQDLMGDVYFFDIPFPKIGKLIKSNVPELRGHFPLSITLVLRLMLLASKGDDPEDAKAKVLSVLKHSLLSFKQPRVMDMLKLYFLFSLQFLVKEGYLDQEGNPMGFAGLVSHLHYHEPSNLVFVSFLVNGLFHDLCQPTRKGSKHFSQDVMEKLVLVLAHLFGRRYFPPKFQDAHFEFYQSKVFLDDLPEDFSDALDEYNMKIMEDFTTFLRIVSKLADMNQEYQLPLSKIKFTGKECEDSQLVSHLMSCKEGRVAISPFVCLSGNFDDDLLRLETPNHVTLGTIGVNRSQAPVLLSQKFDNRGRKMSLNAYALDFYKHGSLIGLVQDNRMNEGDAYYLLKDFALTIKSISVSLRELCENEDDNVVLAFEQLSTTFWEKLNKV
UniProt Q8N9M1: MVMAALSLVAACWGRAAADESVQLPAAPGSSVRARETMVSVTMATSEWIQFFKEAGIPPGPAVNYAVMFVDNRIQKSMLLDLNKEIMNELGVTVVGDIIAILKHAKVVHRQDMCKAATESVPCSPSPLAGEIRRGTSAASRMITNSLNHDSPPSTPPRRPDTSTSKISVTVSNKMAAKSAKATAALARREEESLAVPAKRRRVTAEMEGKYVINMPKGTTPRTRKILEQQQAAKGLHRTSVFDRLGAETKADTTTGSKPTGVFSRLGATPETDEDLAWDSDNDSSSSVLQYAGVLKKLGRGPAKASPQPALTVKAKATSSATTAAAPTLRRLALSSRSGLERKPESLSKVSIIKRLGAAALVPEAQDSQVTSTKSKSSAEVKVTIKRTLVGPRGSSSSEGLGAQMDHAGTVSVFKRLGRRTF
UniProt Q86YB8: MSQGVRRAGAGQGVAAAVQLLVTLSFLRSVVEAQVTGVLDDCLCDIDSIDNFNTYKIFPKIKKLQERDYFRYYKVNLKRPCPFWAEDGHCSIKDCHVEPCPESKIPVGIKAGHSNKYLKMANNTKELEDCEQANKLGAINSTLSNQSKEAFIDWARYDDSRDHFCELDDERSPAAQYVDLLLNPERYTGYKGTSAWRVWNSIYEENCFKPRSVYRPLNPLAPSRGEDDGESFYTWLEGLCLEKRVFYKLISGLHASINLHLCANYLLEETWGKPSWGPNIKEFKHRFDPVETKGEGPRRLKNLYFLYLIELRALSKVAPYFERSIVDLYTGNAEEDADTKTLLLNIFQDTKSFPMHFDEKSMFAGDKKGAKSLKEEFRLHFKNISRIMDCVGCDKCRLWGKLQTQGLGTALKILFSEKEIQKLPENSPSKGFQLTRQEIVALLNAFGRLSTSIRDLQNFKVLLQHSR
UniProt Q86UV5: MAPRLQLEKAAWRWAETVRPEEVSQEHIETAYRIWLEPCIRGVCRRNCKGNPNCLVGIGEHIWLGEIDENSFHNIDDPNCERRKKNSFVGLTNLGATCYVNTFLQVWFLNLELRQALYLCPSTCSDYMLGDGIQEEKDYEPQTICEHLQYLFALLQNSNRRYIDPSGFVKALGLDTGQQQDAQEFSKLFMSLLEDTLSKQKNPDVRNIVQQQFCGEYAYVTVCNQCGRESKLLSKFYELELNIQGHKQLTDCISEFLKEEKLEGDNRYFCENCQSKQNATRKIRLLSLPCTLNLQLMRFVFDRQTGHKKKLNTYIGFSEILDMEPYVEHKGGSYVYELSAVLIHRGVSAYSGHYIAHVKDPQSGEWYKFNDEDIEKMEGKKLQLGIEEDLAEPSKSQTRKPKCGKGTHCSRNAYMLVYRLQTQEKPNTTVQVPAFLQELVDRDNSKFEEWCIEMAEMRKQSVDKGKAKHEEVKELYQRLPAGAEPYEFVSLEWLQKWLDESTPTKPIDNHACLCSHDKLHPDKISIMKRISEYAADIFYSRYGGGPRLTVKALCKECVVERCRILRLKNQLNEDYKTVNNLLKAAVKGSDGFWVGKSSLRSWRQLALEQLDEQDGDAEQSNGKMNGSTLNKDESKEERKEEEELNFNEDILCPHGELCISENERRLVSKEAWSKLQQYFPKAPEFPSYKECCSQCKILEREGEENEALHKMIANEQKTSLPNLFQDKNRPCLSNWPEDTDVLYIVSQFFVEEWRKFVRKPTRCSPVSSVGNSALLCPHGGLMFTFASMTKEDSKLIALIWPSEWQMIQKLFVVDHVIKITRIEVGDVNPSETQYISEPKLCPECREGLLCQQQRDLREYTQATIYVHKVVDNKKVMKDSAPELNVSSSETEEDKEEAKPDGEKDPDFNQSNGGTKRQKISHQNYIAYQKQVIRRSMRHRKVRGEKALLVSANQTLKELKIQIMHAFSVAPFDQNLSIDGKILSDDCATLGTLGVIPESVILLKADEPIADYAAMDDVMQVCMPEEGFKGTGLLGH
UniProt Q8IYQ7: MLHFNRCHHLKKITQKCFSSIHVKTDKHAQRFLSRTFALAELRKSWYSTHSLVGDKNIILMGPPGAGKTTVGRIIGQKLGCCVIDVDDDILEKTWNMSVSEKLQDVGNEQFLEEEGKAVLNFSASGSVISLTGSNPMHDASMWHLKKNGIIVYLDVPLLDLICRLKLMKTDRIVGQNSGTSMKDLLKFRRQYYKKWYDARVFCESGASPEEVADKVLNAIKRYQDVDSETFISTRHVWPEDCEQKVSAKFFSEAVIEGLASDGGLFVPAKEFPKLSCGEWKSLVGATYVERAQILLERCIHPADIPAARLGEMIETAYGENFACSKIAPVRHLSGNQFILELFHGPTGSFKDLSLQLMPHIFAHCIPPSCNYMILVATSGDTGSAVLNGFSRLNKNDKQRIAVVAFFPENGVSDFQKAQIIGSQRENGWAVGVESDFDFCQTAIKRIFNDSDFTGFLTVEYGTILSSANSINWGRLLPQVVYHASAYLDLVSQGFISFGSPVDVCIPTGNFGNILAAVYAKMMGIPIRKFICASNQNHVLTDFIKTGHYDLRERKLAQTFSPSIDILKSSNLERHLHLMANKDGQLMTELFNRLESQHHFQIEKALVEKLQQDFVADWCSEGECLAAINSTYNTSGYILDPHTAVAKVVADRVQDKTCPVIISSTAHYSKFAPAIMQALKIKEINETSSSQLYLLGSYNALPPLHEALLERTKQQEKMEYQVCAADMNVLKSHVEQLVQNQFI
UniProt Q8N999, whole entry: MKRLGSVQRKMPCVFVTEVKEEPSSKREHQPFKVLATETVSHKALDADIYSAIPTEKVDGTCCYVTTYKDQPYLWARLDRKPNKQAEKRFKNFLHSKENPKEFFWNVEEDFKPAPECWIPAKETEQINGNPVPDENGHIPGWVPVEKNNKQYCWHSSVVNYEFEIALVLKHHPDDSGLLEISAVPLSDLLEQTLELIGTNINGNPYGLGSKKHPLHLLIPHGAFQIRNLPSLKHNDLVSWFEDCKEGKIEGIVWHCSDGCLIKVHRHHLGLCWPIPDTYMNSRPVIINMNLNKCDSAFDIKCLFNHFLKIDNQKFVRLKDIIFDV

Compound: Nc1ncnc2c1ncn2[C@@H]1O[C@H](COP(=O)(O)OP(=O)(O)NP(=O)(O)O)[C@@H](O)[C@H]1O [adenylyl imidodiphosphate]
Assay: NP40-soluble protein abundance relative to vehicle (solubility fold change) (ratio); higher = more soluble protein in presence of AMP-PNP
Outline: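 In three independent experiments, Jurkat crude lysate made by Dounce homogenisation was treated for 10 min at room temperature and then 3 min at 37 °C with eight concentrations ranging from 0.1 to 10 mM. It was then solubilised with 0.8% NP40 plus benzonase for 60 min at 4 °C and ultracentrifuged. The supernatant was TMT-labelled for LC-MS/MS, and each value is the fold change against the detergent-processed vehicle for the same replicate, using vsn-normalised intensities.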

Target	NP40-soluble protein abundance (concentration: 0.1mM)	NP40-soluble protein abundance (concentration: 0.5mM)
PALB2 (UniProt Q86YC2)	0.995 ± 0.025	0.9895 ± 0.0027
CLYBL (UniProt Q8N0X4)	0.966 ± 0.015	0.977 ± 0.044
ZADH2 (UniProt Q8N4Q0)	1.02 ± 0.044	0.987 ± 0.071
UniProt Q8N5M4 and related entries	0.933 ± 0.047	0.98 ± 0.096
WDFY1 (UniProt Q8IWB7)	0.992 ± 0.034	0.996 ± 0.077
UniProt Q8IW45	1 ± 0.015	0.984 ± 0.04
UniProt Q8N4V1 and related entries	0.994 ± 0.02	1.03 ± 0.031
ANKRD13A (UniProt Q8IZ07)	0.985 ± 0.034	0.996 ± 0.057
UniProt Q8N128 and related entries	1 ± 0.047	1.02 ± 0.023
UniProt Q8IWZ8	0.956 ± 0.031	0.976 ± 0.044
UniProt Q86U38	1.04 ± 0.019	1.03 ± 0.022
SPATA5 (UniProt Q8NB90)	1.01 ± 0.023	1.05 ± 0.073
UniProt Q8N766 and related entries	1.01 ± 0.02	0.987 ± 0.044
UniProt Q8N954 and related entries	1.01 ± 0.043	1.01 ± 0.06
UniProt Q86TI2 and related entries	0.989 ± 0.049	0.965 ± 0.071
SPATS2 (UniProt Q86XZ4)	1.01 ± 0.027	1.04 ± 0.055
CCDC25 (UniProt Q86WR0)	0.982 ± 0.029	1.02 ± 0.027
UniProt Q8N8K9-2|Q8N8K9-3	0.961 ± 0.045	0.975 ± 0.063
UniProt Q8N9R8 and related entries	1.03 ± 0.015	1 ± 0.067
UniProt Q8IXB1 and related entries	0.989 ± 0.024	1.01 ± 0.042
STX12 (UniProt Q86Y82)	0.964 ± 0.032	0.997 ± 0.067
UniProt Q8N0Z3	0.9721 ± 0.0014	0.98227 ± 0.00073
GPAT4 (UniProt Q86UL3)	1.01 ± 0.015	1 ± 0.037
TSEN54 (UniProt Q7Z6J9)	1.01 ± 0.028	0.994 ± 0.027

Single entries from the list:
Entry of UniProt Q8N128 and related entries under NP40-soluble protein abundance (concentration: 0.5mM): 1.02 ± 0.023
Entry of UniProt Q8N766 and related entries under NP40-soluble protein abundance (concentration: 0.5mM): 0.987 ± 0.044
Entry of GPAT4 (UniProt Q86UL3) under NP40-soluble protein abundance (concentration: 0.5mM): 1 ± 0.037
Entry of ANKRD13A (UniProt Q8IZ07) under NP40-soluble protein abundance (concentration: 0.5mM): 0.996 ± 0.057
Entry of UniProt Q8IWZ8 under NP40-soluble protein abundance (concentration: 0.1mM): 0.956 ± 0.031
Entry of STX12 (UniProt Q86Y82) under NP40-soluble protein abundance (concentration: 0.5mM): 0.997 ± 0.067

The listing continues.

Target	NP40-soluble protein abundance (concentration: 0.1mM)	NP40-soluble protein abundance (concentration: 0.5mM)
LMTK2 (UniProt Q8IWU2)	1.02 ± 0.042	1.01 ± 0.015
UniProt Q8IYU8 and related entries	1 ± 0.012	0.974 ± 0.018
SRBD1 (UniProt Q8N5C6)	0.985 ± 0.025	0.992 ± 0.054
UniProt Q8NBF6 and related entries	0.979 ± 0.02	0.981 ± 0.023
UniProt Q86TN4 and related entries	1.03 ± 0.065	1.04 ± 0.043
UniProt Q8IWV8 and related entries	0.991 ± 0.025	0.981 ± 0.06
CCDC82 (UniProt Q8N4S0)	0.977 ± 0.058	0.99 ± 0.014
RCOR2 (UniProt Q8IZ40)	1.01 ± 0.046	0.987 ± 0.048
UniProt Q8N0V3	1.02 ± 0.021	1.02 ± 0.022
UniProt Q8IYS2 and related entries	1.02 ± 0.014	0.975 ± 0.042
UniProt Q86WJ1 and related entries	1.03 ± 0.037	0.989 ± 0.045
ZBTB33 (UniProt Q86T24)	0.987 ± 0.024	0.974 ± 0.041
UniProt Q7Z7F0	0.995 ± 0.083	1.02 ± 0.063
DIS3L2 (UniProt Q8IYB7)	0.982 ± 0.017	0.96 ± 0.016
C1orf174 (UniProt Q8IYL3)	0.99 ± 0.025	0.976 ± 0.012
UniProt Q8IWY9 and related entries	0.99 ± 0.021	0.9669 ± 0.0032
UniProt Q86XL3 and related entries	0.9793 ± 0.0083	0.9699 ± 0.0068
UniProt Q8N4Q1 and related entries	0.949 ± 0.034	1.04 ± 0.1
PM20D2 (UniProt Q8IYS1)	1.02 ± 0.054	1.01 ± 0.076
LNX2 (UniProt Q8N448)	1 ± 0.02	1.01 ± 0.026
ARL6IP6 (UniProt Q8N6S5)	1 ± 0.063	0.987 ± 0.057
UniProt Q86V59 and related entries	0.999 ± 0.018	1.02 ± 0.041
UniProt Q86YP4-2|Q86YP4-3|Q86YP4	1.02 ± 0.03	1.02 ± 0.053
GUF1 (UniProt Q8N442)	1.01 ± 0.055	0.996 ± 0.026

Target	NP40-soluble protein abundance (concentration: 0.1mM)	NP40-soluble protein abundance (concentration: 0.5mM)
UniProt Q8N4C8 and related entries	1.01 ± 0.047	1.01 ± 0.036
UniProt Q8IV53 and related entries	0.978 ± 0.01	0.998 ± 0.027
UniProt Q86W92 and related entries	1.02 ± 0.012	1.03 ± 0.017
UniProt Q86TI0 and related entries	1.04 ± 0.011	1.01 ± 0.033
UniProt Q86WQ0 and related entries	1.02 ± 0.068	1.06 ± 0.038
UniProt Q8N9B5 and related entries	1.03 ± 0.046	1.02 ± 0.036
UniProt Q86WA8 and related entries	0.993 ± 0.032	0.996 ± 0.022
DCUN1D3 (UniProt Q8IWE4)	1 ± 0.035	0.972 ± 0.036
RASAL3 (UniProt Q86YV0)	1.04 ± 0.028	1.01 ± 0.0086
SLC15A4 (UniProt Q8N697)	0.989 ± 0.015	0.967 ± 0.021
UniProt Q86UA6 and related entries	0.9817 ± 0.005	0.989 ± 0.015
NHLRC2 (UniProt Q8NBF2)	1 ± 0.024	0.994 ± 0.024
SMG6 (UniProt Q86US8)	1.03 ± 0.031	0.983 ± 0.057
SMC5 (UniProt Q8IY18)	0.989 ± 0.013	0.991 ± 0.024
UniProt Q86VV8 and related entries	0.981 ± 0.042	0.953 ± 0.088
UniProt Q8N1K5 and related entries	0.988 ± 0.015	0.962 ± 0.059
MRPL41 (UniProt Q8IXM3)	0.995 ± 0.026	1.01 ± 0.02
UniProt Q8N4L2 and related entries	0.978 ± 0.0031	0.995 ± 0.018
DDX60 (UniProt Q8IY21)	1.04 ± 0.083	1.05 ± 0.082
Q8N655 (UniProt Q96JN0)	1.056 ± 0.0096	1.05 ± 0.037
UniProt Q8IUH4 and related entries	1 ± 0.056	0.963 ± 0.065
UniProt Q8N0X7	0.945 ± 0.055	1.021 ± 0.0063
ASCC3 (UniProt Q8N3C0)	1 ± 0.028	1.03 ± 0.051
UniProt Q8N5A5 and related entries	1.01 ± 0.043	1.04 ± 0.03

Target	NP40-soluble protein abundance (concentration: 0.1mM)	NP40-soluble protein abundance (concentration: 0.5mM)
UniProt Q8N9M1 and related entries	0.997 ± 0.03	0.989 ± 0.04
UniProt Q86UW6 and related entries	0.992 ± 0.031	1.01 ± 0.054
UniProt Q8N511 and related entries	0.991 ± 0.036	1.029 ± 0.0014
UniProt Q8IZH2 and related entries	1.01 ± 0.032	0.982 ± 0.033
UniProt Q8N684 and related entries	0.9843 ± 0.0051	1 ± 0.049
UniProt Q86T03-2	0.986 ± 0.054	1.02 ± 0.05
UniProt Q8IYH5 and related entries	0.949 ± 0.018	0.982 ± 0.045
UniProt Q8IVB4	0.983 ± 0.022	0.994 ± 0.018
UniProt Q8IZ81 and related entries	0.955 ± 0.029	0.982 ± 0.053
UniProt Q86VX2 and related entries	1.01 ± 0.016	1.05 ± 0.05
GDPD1 (UniProt Q8N9F7)	0.994 ± 0.044	1.01 ± 0.02
GPD1L (UniProt Q8N335)	0.969 ± 0.015	0.9813 ± 0.0024
UniProt Q86WV1 and related entries	0.992 ± 0.051	0.988 ± 0.058
SUPV3L1 (UniProt Q8IYB8)	1.02 ± 0.017	0.986 ± 0.072
RNF168 (UniProt Q8IYW5)	1 ± 0.017	0.975 ± 0.02
ZC3H3 (UniProt Q8IXZ2)	1.03 ± 0.031	0.97808 ± 0.00093
UniProt Q8IXQ5 and related entries	0.995 ± 0.026	0.993 ± 0.012
MRPL50 (UniProt Q8N5N7)	1.06 ± 0.038	1.05 ± 0.068
ANKRD52 (UniProt Q8NB46)	1.01 ± 0.022	0.991 ± 0.024
UniProt Q86X55 and related entries	0.997 ± 0.027	0.976 ± 0.13
UniProt Q8IW35 and related entries	0.998 ± 0.023	0.984 ± 0.024
CBR4 (UniProt Q8N4T8)	0.993 ± 0.016	0.997 ± 0.068
FAM126B (UniProt Q8IXS8)	0.983 ± 0.029	0.98 ± 0.029
GALNT7 (UniProt Q86SF2)	1 ± 0.044	0.978 ± 0.052

Fetched one by one from the entries so far, 2 records:
Target	NP40-soluble protein abundance (concentration: 0.1mM)	NP40-soluble protein abundance (concentration: 0.5mM)
UniProt Q8N0V3	1.02 ± 0.021	1.02 ± 0.022
LNX2 (UniProt Q8N448)	1 ± 0.02	1.01 ± 0.026

(next part)

Target	NP40-soluble protein abundance (concentration: 0.1mM)	NP40-soluble protein abundance (concentration: 0.5mM)
UniProt Q86X10 and related entries	1.03 ± 0.04	0.976 ± 0.046
UniProt Q8IXQ6-2|Q8IXQ6-3|G5E9U8 and related entries	0.999 ± 0.049	0.978 ± 0.063
METTL3 (UniProt Q86U44)	0.9929 ± 0.0058	1.01 ± 0.027
UniProt Q86VN1 and related entries	1.02 ± 0.035	1.01 ± 0.057
KIAA0319L (UniProt Q8IZA0)	0.982 ± 0.023	0.99 ± 0.032
UniProt Q8IUH3-3	1.006 ± 0.0094	1.016 ± 0.0085
UniProt Q8N5Y8 and related entries	1.03 ± 0.028	1.02 ± 0.03
UniProt Q8IVW6 and related entries	1.06 ± 0.063	1.01 ± 0.076
UniProt Q86YB8	0.984 ± 0.025	0.9849 ± 0.0072
UniProt Q86TB9 and related entries	1 ± 0.016	1.03 ± 0.043
PTGR2 (UniProt Q8N8N7)	0.986 ± 0.018	0.988 ± 0.015
RFLNB (UniProt Q8N5W9)	1.03 ± 0.032	1.01 ± 0.051
USP48 (UniProt Q86UV5)	0.98 ± 0.037	0.983 ± 0.0014
THNSL1 (UniProt Q8IYQ7)	1 ± 0.044	0.987 ± 0.05
SYTL1 (UniProt Q8IYJ3)	0.998 ± 0.022	0.989 ± 0.022
UniProt Q8IUF8 and related entries	1.01 ± 0.018	1.01 ± 0.033
CMIP (UniProt Q8IY22)	0.997 ± 0.021	0.987 ± 0.02
UniProt Q8IXI2-2|Q8IXI2-3	1.02 ± 0.043	0.996 ± 0.037
UniProt Q8IZ21 and related entries	0.979 ± 0.025	0.954 ± 0.082
C12orf29 (UniProt Q8N999)	0.97 ± 0.022	0.992 ± 0.024
UniProt Q8N2K0 and related entries	1.05 ± 0.019	1.05 ± 0.016
UniProt Q8IXJ6 and related entries	1.01 ± 0.046	1.01 ± 0.024
GCC2 (UniProt Q8IWJ2)	0.985 ± 0.023	0.992 ± 0.038
INTS1 (UniProt Q8N201)	1.04 ± 0.013	1.02 ± 0.055
